Experimental findings from article PMC5996148 are described below.

What all share (experiment): protein microarray (ProtoArray v5.0), streptavidin-Alexa Fluor 647
What all share (conditions): 3'-biotin; 20 mM Tris (pH 7.5), 5 mM MgCl2, 100 mM KCl, 0.1% Tween-20, A/T-rich and random oligonucleotide blockers; temperature not stated; high values mean tight binding

Assay [1] deals with Uncharacterized protein C11orf74 (human).
Assay [2] has as its system Uncharacterized protein C12orf60 (human).
For assay [3], the system named is Uncharacterized protein C12orf65 (human).
The test system of assay [4] is Uncharacterized protein C15orf39 (human).
For assay [5], the system named is Uncharacterized protein C16orf45 (human).
For assay [6], the system named is Uncharacterized protein C17orf66 (human).
Assay [7] deals with Uncharacterized protein C18orf1 (human).
Assay [8] concerns Uncharacterized protein C1orf74 (human).
The subject of assay [9] is Uncharacterized protein C2orf27 (human).
Assay [10] concerns Uncharacterized protein C2orf57 (human).
The subject of assay [11] is Uncharacterized protein C2orf62 (human).
Assay [12] concerns Uncharacterized protein C3orf62 (human).
Assay [13] has as its system Uncharacterized protein C4orf32 (human).
Assay [14] relates to Uncharacterized protein C6orf142 homolog (human).
Assay [15] concerns Uncharacterized protein C8orf41 (human).
For assay [16], the system named is Uncharacterized protein CXorf38 (human).
Assay [17] has as its system Uncharacterized protein KIAA1109 (human).
The test system of assay [18] is Uncharacterized serine/threonine-protein kinase SgK494 (human).
Assay [19] concerns Uridine-cytidine kinase 2 (human).
Assay [20] relates to Urocortin-2 (human).

Some of the results follow.

As to “GGGAGGCTGAGGCAGG [G4-1 biotinylated (PQS2)]”, the binding signal was -0.347 z-score in [1]; -0.358 z-score in [2]; -0.287 z-score in assay [3]; -0.318 z-score in assay [4]; -0.328 z-score in assay [5]; -0.318 z-score in assay [6]. For the same sequence, the binding signal was -0.335 z-score in assay [7]; -0.308 z-score in assay [8]; -0.281 z-score in assay [9]; -0.336 z-score in [10]; -0.354 z-score in assay [11]; -0.296 z-score in [12]. Besides, the binding signal in assay [13] is -0.325 z-score; in assay [14], -0.283 z-score; in [15], -0.34 z-score; in assay [16], -0.34 z-score; in assay [17], -0.275 z-score; in assay [18] it was -0.282 z-score. Besides, the binding signal in assay [19] is -0.342 z-score; in assay [20] it was -0.283 z-score.
